Assay results as given in patent US10286032B2, “Pro-angiogenic fragments of prominin-1 and uses thereof” (Children's Medical Center Corporation, priority 2010, dated 2019).
Some of these results come from one statement about several compounds together.

Test system: ischemic hind limb blood flow
Test: hind limb ischemia model, intraperitoneal administration (Example 12)
Type: in vivo, mouse
Settings: ratio of perfusion of ischemic limb to uninjured limb; on average
Protocol: Mice were ligated in one of their femoral arteries (the […]) to simulate hind limb ischemia. The blood flow was analyzed by machine for each mouse before and immediately after the procedure to evaluate if the femoral was ligated properly. Blood flow was compared with the non-operated leg by a laser Doppler imager. […] The ischemic limb is seen as the limb on left side in the laser Doppler images.
Representative evaluation of the ischemic (left side of each image) and non-ischemic (right side of each image) hind limbs, immediately after, and on days 4 and 14 after surgery. In FIG. 11, the white areas indicate normal perfusion with normal blood circulation and black areas indicate no blood flow in the ischemic left hind limb. […] Dark shaded areas within the white areas located at the distal ends of the limbs indicate […].
The blood flow of the ischemic hind limb is expressed as the ratio between the perfusion of the ischemic limb and the uninjured limb in FIG. 12.

| Sequence | increased perfusion compared to saline treated mice |
| --- | --- |
| DRVQVQTTTVVA [#237-V] | 30-40% |
| DRVQRQTTTVVA (listed as Homo sapiens) [#237] | 30-40% |
